Reference: PMC11201311
Results are given in words; binding and its absence hold for the method and conditions named. Binding seen in cells or lysates may run through a third protein. A yes stands for co-enrichment or nearness to the bait. Other partners may have been found.

By UniProt entry, the sequences of proteins in these tests, tags left out.
UniProt P61081: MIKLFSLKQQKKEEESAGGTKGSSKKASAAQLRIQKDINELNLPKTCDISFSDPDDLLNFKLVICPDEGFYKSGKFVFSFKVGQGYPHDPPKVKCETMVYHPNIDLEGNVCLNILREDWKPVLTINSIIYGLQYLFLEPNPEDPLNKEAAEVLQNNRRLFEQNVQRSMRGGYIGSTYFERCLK
UniProt Q14258: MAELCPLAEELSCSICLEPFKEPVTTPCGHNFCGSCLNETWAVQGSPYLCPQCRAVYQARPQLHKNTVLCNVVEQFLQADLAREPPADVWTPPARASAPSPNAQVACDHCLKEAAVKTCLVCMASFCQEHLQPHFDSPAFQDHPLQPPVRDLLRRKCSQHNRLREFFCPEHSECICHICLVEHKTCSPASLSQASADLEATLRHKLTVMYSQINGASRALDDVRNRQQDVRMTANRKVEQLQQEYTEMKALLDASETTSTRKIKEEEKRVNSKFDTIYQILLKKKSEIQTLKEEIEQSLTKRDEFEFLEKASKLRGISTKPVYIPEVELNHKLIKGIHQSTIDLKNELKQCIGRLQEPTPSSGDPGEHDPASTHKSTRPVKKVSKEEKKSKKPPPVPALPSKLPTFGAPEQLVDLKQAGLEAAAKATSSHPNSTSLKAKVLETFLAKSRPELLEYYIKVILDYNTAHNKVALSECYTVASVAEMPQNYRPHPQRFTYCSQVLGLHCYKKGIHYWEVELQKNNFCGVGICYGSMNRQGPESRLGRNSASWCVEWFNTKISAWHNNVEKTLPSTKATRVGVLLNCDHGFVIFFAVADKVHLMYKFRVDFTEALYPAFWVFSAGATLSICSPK

Target: Flag-UBC12 (human) (UniProt P61081)
Experiment: affinity purification with mass spectrometry; BT-549 cells transfected with Flag-UBC12 or Flag-TFEB for 48 h, MG132 for 3 h; lysates immunoprecipitated with anti-Flag; silver staining and mass spectrum

Substance: E3 ubiquitin ligase tripartite motif containing 25 (TRIM25), endogenous (from UniProt Q14258 1-630) (enzyme)
- binding: binds
